# PubChem BioAssay AID504804 – Drosophila RNAi Screening Center | 2011
# Aim: 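Fly genes whose loss lessens doxorubicin-driven cell death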 (primary screen)
# System: Drosophila Kc cells
# Reagents: long dsRNA against Drosophila genes, 0.5 µg dsRNA per well
# Timing: 96 h (48 h knock-down, then 48 h drug)
# Challenge: doxorubicin 5 µg/ml for 48 h, added 48 h after dsRNA
# Detection: 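Viability measured as cellular ATP by luminescence after 48 h knock-down then 48 h doxorubicin at 5 µg/ml; unnormalised plate counts for each replicate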
# Reading the numbers: raw ATP luminescence: higher = more viable cells, protection from doxorubicin
# Active means: 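Active when both duplicate wells lie at least 2 SD above the plate mean and protection is confirmed by rescreening and independent dsRNAs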
# The deposit covers about 19,000 reagents; below is a random part of those with a known target gene and a result. In the full data, 47 (0.25%) got an active call. 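Signals are raw, not normalised; exact z-scores behind calls not deposited; actives needed confirmation, so some wells reaching 2 SD are inactive.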
The first 4 entries, ahead of the listing:
predicted target,amplicon,"raw ATP luminescence, replicate 1","raw ATP luminescence, replicate 2",call
CG14736,DRSC14956,23183,55100,inactive
Karybeta3 (Karyopherin beta 3),DRSC12355,24407,21180,inactive
Med (Medea),DRSC16737,13140,8760,inactive
CG5697,DRSC15858,62010,68210,inactive

The listing, repeating the preview:
predicted target,amplicon,"raw ATP luminescence, replicate 1","raw ATP luminescence, replicate 2",call
CG14736,DRSC14956,23183,55100,inactive
Karybeta3 (Karyopherin beta 3),DRSC12355,24407,21180,inactive
Med (Medea),DRSC16737,13140,8760,inactive
CG5697,DRSC15858,62010,68210,inactive
CG8677,DRSC03107,61940,59307,inactive
p53,DRSC17024,35997,29750,inactive
CG2811,DRSC04318,55793,58187,inactive
TyrR (Tyramine receptor),DRSC16242,28890,21210,inactive
CG13023,DRSC09454,77787,1.01e5,inactive
CG13023,DRSC09903,61410,43393,inactive
Srp72 (Signal recognition particle 72),DRSC15800,44680,47140,inactive
Ca-beta (Ca2+-channel-protein-beta-subunit),DRSC02406,32830,67437,inactive
Ca-beta (Ca2+-channel-protein-beta-subunit),DRSC02407,42457,72437,inactive
Ca-beta (Ca2+-channel-protein-beta-subunit),DRSC03285,36523,79560,inactive
CG15534,DRSC15070,28420,33530,inactive
Cbl (Cbl proto-oncogene),DRSC10764,88373,96967,inactive
Cbl (Cbl proto-oncogene),DRSC11111,92120,86043,inactive
CG12171,DRSC12200,71577,60210,inactive
Kif3C (Kinesin family member 3C),DRSC17209,62680,60690,inactive
Kif3C (Kinesin family member 3C),DRSC17210,57900,74750,inactive
CG31326,DRSC16532,1.11e5,70870,inactive
CG11878,DRSC14422,57260,51330,inactive
CG43996,DRSC19456,3.15e5,2.96e5,inactive
CG43996,DRSC19457,3.45e5,3.18e5,inactive
"Prosalpha3T (Proteasome alpha3 subunit, Testis-specific)",DRSC15226,53530,53030,inactive
sw (short wing),DRSC20388,2.21e5,2.17e5,inactive
CG4022,DRSC10395,81273,55783,inactive
AIF (Apoptosis inducing factor),DRSC00696,87130,59227,inactive
Gas41,DRSC03156,89330,53913,inactive
CG5693,DRSC02878,70290,67243,inactive
Shark (SH2 ankyrin repeat kinase),DRSC07680,57810,52540,inactive
CG12689,DRSC17879,49100,44860,inactive
CG34304 (retired record),DRSC12810,70687,53340,inactive
sing (singles bar),DRSC19530,3.55e5,2.77e5,inactive
sll (slalom),DRSC16271,50250,49243,inactive
TwdlU (TweedleU),DRSC12224,80853,58350,inactive
"GAPsec (GTPase activating protein, SECIS-dependent read-through)",DRSC10564,37207,34810,inactive
TwdlD (TweedleD),DRSC14738,72310,54810,inactive
Taf7 (TBP-associated factor 7),DRSC15445,57513,54353,inactive
CG34393,DRSC00419,19590,26550,inactive
CG34393,DRSC00710,24743,29137,inactive
CG30398,DRSC03891,57317,44543,inactive
lectin-24A,DRSC00604,22060,27393,inactive
JhI-26 (Juvenile hormone-inducible protein 26),DRSC06851,64447,61467,inactive
prom (prominin),DRSC04684,49827,44200,inactive
CG15127,DRSC05802,1.27e5,1.09e5,inactive
Dhc93AB (Dynein heavy chain at 93AB),DRSC16644,66100,53230,inactive
fzy (fizzy),DRSC03534,41537,46230,inactive
Dph5 (Diphthamide methyltransferase),DRSC16653,50000,54177,inactive
Nep7 (Neprilysin 7),DRSC15830,52810,44090,inactive
CG15443,DRSC00455,28847,26747,inactive
CG14391,DRSC14850,52507,53737,inactive
mnb (minibrain),DRSC20058,2.04e5,1.70e5,inactive
mnb (minibrain),DRSC20353,4.16e5,3.52e5,inactive
Nlg3 (Neuroligin 3),DRSC12477,63310,58887,inactive
Nlg3 (Neuroligin 3),DRSC12524,58933,52490,inactive
Nlg3 (Neuroligin 3),DRSC12540,65163,56497,inactive
Nlg3 (Neuroligin 3),DRSC12574,48660,61970,inactive
